Out of some 360,000 compounds screened, about 7,500 (2.1%) were called active. The inconclusive results got no clear call from the source; some entries with a clear call stand among them for comparison. The call rests on the fitted dose curve; in most records, active means well fitted inhibition curve with a large enough effect; inconclusive means small, poorly fitted or top-dose-only effect, or effect the other way; inactive means flat fitted curve, though single readings scatter. Potencies beside an inconclusive call are fits to weak or partial responses and may not hold up.
assay: Nrf2 qHTS screen for inhibitors; settings: A549 ARE-Fluc reporter, luciferase luminescence, 18-24 h; series mostly up to 46 µM; further: nearly all actives have a fitted effect of over 60% in size
Method in brief: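 Reporter: ARE-Fluc in A549. Exposure: 18-24 h, 37 °C, 5% CO2, 5% FBS OPTI-MEM. Readouts: fluorescent cytotoxicity (CellTiter-Fluor), then luminescent Nrf2 signal after BugLite.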
Potency means the concentration at half of the fitted maximal effect.

| SMILES | Potency |
| --- | --- |
| O=c1[nH]c(Nc2ccccc2)cc2cc(Br)ccc12 | inconclusive: 32.6 µM [falling, single point] |
| Clc1cccc(N2CCN(c3c4c(nc5nncn35)CCC4)CC2)c1 | inconclusive: 16.4 µM [falling, single point] |
| CCOC(=O)Cc1csc(NC(=O)c2cnc3scc(C)n3c2=O)n1 | inconclusive: 0.0046 µM [activator, full curve, poor fit] |
| Cn1c(=NC(=O)c2ccccc2[N+](=O)[O-])sc2cccc(F)c21 | inconclusive: 1.46 µM [activator, partial curve, poor fit] |
| O=c1oc(-c2ccccc2)nc2sc3c(c12)CCC3 | inconclusive: 13 µM [falling, partial curve, poor fit] |
| Cc1ccc(NC(=O)C2=CC(c3ccc(C)cc3)=NS(=O)(=O)N2C)cc1 | inconclusive: 25.9 µM [falling, partial curve, poor fit] |
| COc1cccc(-c2cc(C(=O)Nc3ccccc3)c3ccccc3n2)c1 | inconclusive: 1.84 µM [falling, partial curve, poor fit] |
| COc1ccc2nc(N=NC3=C(O)CC(C)(C)CC3=O)sc2c1 | inconclusive: 4.61 µM [activator, partial curve, poor fit] |
| Cc1ccc(CNc2ccc3c(c2)ncn3C(C)(C)C)cc1 | inconclusive: 11.6 µM [activator, partial curve] |
| Cc1cc(C)c(S(=O)(=O)NC2CC3CCC2C3)c(C)c1 (stereo unspecified) | inconclusive: 25.9 µM [falling, single point] |
| CSCC[C@H](NC(=O)c1ccc(Cl)c(S(=O)(=O)N2CCCC2)c1)c1nc2ccccc2[nH]1 | inconclusive: 29.1 µM [falling, single point] |
| O=S(=O)(NC1CCSc2ccccc21)c1ccccc1 (stereo unspecified) | inconclusive: 29.1 µM [activator, single point] |
| FC(F)(F)c1nc(N2CCCC2)ncc1-c1nnnn1-c1ccccc1 | inconclusive: 25.9 µM [falling, partial curve, poor fit] |
| O=C1c2ccccc2C(=O)N1c1ncccc1O | inactive |
| Cc1ccccc1C(=O)/C(C#N)=N/Nc1c(C)n(C)n(-c2ccccc2)c1=O | active: 8.2 µM |
| COc1ccccc1N1CCN(c2ccc([N+](=O)[O-])cn2)CC1 | inconclusive: 0.206 µM [falling, partial curve, poor fit] |
| O=C1C2C3C=CC(C3=C(c3ccccc3)c3ccccc3)C2C(=O)N1CCO (stereo unspecified) | inconclusive: 8.2 µM [falling, full curve, poor fit] |
| O=C(NCc1ccc2c(c1)OCO2)C1CCN(c2ccc(S(=O)(=O)N3CCCC3)cc2)CC1 | inconclusive: 25.9 µM [falling, partial curve, poor fit] |
| O=[N+]([O-])c1cccc(/C=N/Nc2nc(NCc3ccccc3)nc(N3CCOCC3)n2)c1O | inconclusive: 4.11 µM [falling, full curve, poor fit] |
| Cc1ccc(-c2noc(-c3ccc(N4CCCCC4C)c([N+](=O)[O-])c3)n2)cc1 (stereo unspecified) | inconclusive: 11.6 µM [activator, partial curve, poor fit] |
| CC(C)[C@H](NC(=O)CCCn1nnc2ccccc2c1=O)C(=O)O | inactive |
| O=C(N/N=C\c1ccc2c(c1)OCO2)c1ccco1 | inconclusive: 0.259 µM [activator, full curve, poor fit] |

Fetched by compound from the entries so far, three records:

| SMILES | Potency |
| --- | --- |
| Cc1cc(C)c(S(=O)(=O)NC2CC3CCC2C3)c(C)c1 (stereo unspecified) | inconclusive: 25.9 µM [falling, single point] |
| CC(C)[C@H](NC(=O)CCCn1nnc2ccccc2c1=O)C(=O)O | inactive |
| Cc1ccc(CNc2ccc3c(c2)ncn3C(C)(C)C)cc1 | inconclusive: 11.6 µM [activator, partial curve] |

(next part)

| SMILES | Potency |
| --- | --- |
| Cc1ccc(Nc2cc(-n3cccn3)ncn2)c(C)c1 | inconclusive: 1.16 µM [activator, partial curve, poor fit] |
| COc1ccc(C2c3ccc(O)cc3Oc3ncn(CC(C)C)c(=N)c32)cc1 (stereo unspecified) | inactive |
| CCCCOc1ccc(C(O)C(CN2CCOCC2)c2ccccc2)cc1 (stereo unspecified) | inconclusive: 20.6 µM [falling, partial curve, poor fit] |
| O=C(COc1ccc(Cl)cc1Cl)N1CCCN(C(=O)COc2ccc(Cl)cc2Cl)CC1 | inconclusive: 16.4 µM [falling, single point] |
| CC(C)Cn1c(N)c(C(=O)CSc2nc3ncc(Cl)cc3[nH]2)c(=O)n(C)c1=O | active: 11.6 µM |
| COc1ccc(N(C)C(=O)c2nc(-c3cccc(F)c3)n3c2CCCCC3)c(OC)c1 | inactive |
| CC1CN(S(=O)(=O)c2cc(C(=O)N(C)Cc3cccs3)ccc2Cl)CC(C)O1 (stereo unspecified) | inconclusive: 16.4 µM [falling, partial curve, poor fit] |
| Cc1cccc(NC(=O)CSCC(=O)Nc2cccc(S(=O)(=O)N3CCCCCC3)c2)c1 | inconclusive: 16.4 µM [falling, partial curve, poor fit] |
| CCCc1nc(SCC(=O)N2CCC(C)CC2)c2c(=O)n(C)c(=O)n(C)c2n1 | inactive |
| O=C(NCCC1=CCCCC1)c1cc2c(s1)CS(=O)(=O)C2 | inconclusive: 6.51 µM [activator, partial curve, poor fit] |
| O=C1CCc2cc(S(=O)(=O)Nc3ccc(Cl)c(Cl)c3)c(F)cc2N1 | inactive |
| N#CC1=C(SCc2ccccc2)NC(=O)CC1c1ccc(O)cc1 (stereo unspecified) | inactive |
| Cc1ccc(C(=O)NCCc2cccs2)cc1 | inconclusive: 29.1 µM [falling, single point] |
| Cc1ccc(C2C3=C(CC(C)(C)CC3=O)NC3=C2C(=O)c2ccccc23)cc1 (stereo unspecified) | inconclusive: 20.6 µM [falling, single point] |
| Cc1nc2ccccc2c(=O)n1NC(=O)/C=C/c1ccc(Br)cc1 | inconclusive: 16.4 µM [falling, partial curve] |
| CSc1ccc(CNc2cccc3ccccc23)cc1 | inconclusive: 29.1 µM [activator, single point] |
| CC1CN(c2cc(=O)n(-c3ccc(Cl)cc3)c(=O)[nH]2)CC(C)O1 (stereo unspecified) | inconclusive: 0.651 µM [falling, single point] |
| COc1ccccc1-c1c(C)nn2c(N3CCN(Cc4ccccc4)CC3)cc(C)nc12 | active: 23.1 µM |
| CC(C)C(=O)Nc1cccc(C(=O)Nc2ccccc2C(=O)O)c1 | inconclusive: 0.116 µM [falling, full curve, poor fit] |
| Cc1ccccc1-n1cc(CNC(=O)CCc2nnc(CCc3ccccc3)o2)cn1 | inconclusive: 11.6 µM [activator, partial curve] |
| COc1cc2c(C(=O)N3CCOCC3)c(CSc3ccccc3)n(C)c2cc1Br | active: 25.9 µM |
| CC(C)Cc1ccc(CN2CCCC(NC(=O)c3cccc(-n4cnnc4)c3)C2)cc1 (stereo unspecified) | inconclusive: 23.1 µM [falling, single point] |

| SMILES | Potency |
| --- | --- |
| CC1CCc2cc(F)cc3c2N1C(=O)C(C(=O)Nc1cnccn1)C3=O (stereo unspecified) | inactive |
| Cc1cc(C)n2ncc(C(=O)Nc3ccc(Cl)c(Cl)c3)c2n1 | inconclusive: 4.61 µM [activator, full curve] |
| Cc1cc(C)cc(OCC(=O)N/N=C/c2ccc([N+](=O)[O-])o2)c1 | active: 20.6 µM |
| Cc1cc(C(=O)COc2ccc(Br)cc2F)c(C)n1C1CC1 | inconclusive: 20.6 µM [falling, single point] |
| CCOc1ccc(-n2c(SCc3ccc([N+](=O)[O-])cc3)nnc2-c2ccccc2)cc1 | inconclusive: 18.4 µM [falling, single point] |
| CCOc1ccc(-c2ncncc2-c2ccccc2OC)c(O)c1 | inconclusive: 29.1 µM [activator, single point] |
| N#Cc1ccc(NC(=O)Nc2ccc(Oc3ccc(NC(=O)Nc4ccc(C#N)cc4)cc3)cc2)cc1 | inconclusive: 20.6 µM [falling, partial curve, poor fit] |
| COc1ccc(-c2cc(=O)c3c(OC)c(OC)c(OC)c(OC)c3o2)cc1OC | inactive |
| CC(=O)N1c2ccc(S(=O)(=O)NCC3CCC(C(=O)N(C)Cc4ccccc4)CC3)cc2CC1C (stereo unspecified) | inconclusive: 18.4 µM [falling, partial curve] |
| COc1cccc(Cn2c(=O)cc(C)c3c(C)nn(-c4ccc(C)cc4)c32)c1 | inconclusive: 29.1 µM [activator, single point] |
| CSc1nc(N(C)C)nc(N(C#N)CCOC(C)=O)n1 | inconclusive: 25.9 µM [activator, single point] |
| CCN(C(=O)COC(=O)CCCOc1ccccc1)c1c(N)n(Cc2ccccc2)c(=O)[nH]c1=O | inactive |
| CN(C)c1nc(N)ncc1-c1ccc(Oc2ccccc2)cc1 | inactive |
| Cc1cc(NC(=O)c2ccco2)c(=O)n(Cc2c(F)cccc2Cl)c1 | inconclusive: 32.6 µM [falling, partial curve, poor fit] |
| CN=c1scc(-c2ccccc2F)n1/N=C(\C)c1cccnc1 | inconclusive: 25.9 µM [falling, single point] |
| COc1ccc(NC(=O)Nc2cc(C)ccc2F)cc1OC | inconclusive: 7.31 µM [activator, partial curve, poor fit] |
| Cc1ccc(NS(=O)(=O)c2ccc(-c3ccccc3)cc2)cc1C | inconclusive: 23.1 µM [falling, single point] |
| Cc1ccc(S(=O)(=O)N2CCc3cc(C(=O)NCCc4ccccc4)ccc32)cc1 | inactive |
| CCOc1ccc(C(=O)Nc2ccc(NC(=O)c3ccco3)c(Cl)c2)cc1Cl | active: 20.6 µM |
| Cc1cc(-c2ccc(S(=O)(=O)NCc3ccccc3Cl)s2)on1 | inactive |
| CC(OC(=O)c1ccccc1Br)C(=O)Nc1nc(-c2cccc([N+](=O)[O-])c2)cs1 (stereo unspecified) | inactive |
| COc1ccc(/C=N/NC(=O)c2cc3cc(OC)c(OC)cc3[nH]2)cc1 | active: 20.6 µM |
